In PubChem BioAssay AID2517 (National Center for Advancing Translational Sciences (NCATS), 2010):
About 1,200 (0.34%) of roughly 350,000 compounds were called active. Inconclusive results, whose numbers are uncertain, are shown with a selection of clear calls. Calls follow the shape of the dose curve; as a rule, active = well fitted inhibition curve with a large enough effect; inconclusive = small, poorly fitted or top-dose-only effect; inactive = no such curve, though single readings can be large or run the other way. Where the call is inconclusive, the potency comes from a doubtful curve fit.
Also: nearly all actives have a fitted effect of over 55% in size.
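For activity change, negative = inhibition in this document: plate controls were vehicle for no effect and reference inhibitor for full effect.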
Potency is read from the fitted curve at half-maximal effect.

Chains of the proteins cited; added tags and fusions are not shown.
UniProt P27695, whole entry, looked up: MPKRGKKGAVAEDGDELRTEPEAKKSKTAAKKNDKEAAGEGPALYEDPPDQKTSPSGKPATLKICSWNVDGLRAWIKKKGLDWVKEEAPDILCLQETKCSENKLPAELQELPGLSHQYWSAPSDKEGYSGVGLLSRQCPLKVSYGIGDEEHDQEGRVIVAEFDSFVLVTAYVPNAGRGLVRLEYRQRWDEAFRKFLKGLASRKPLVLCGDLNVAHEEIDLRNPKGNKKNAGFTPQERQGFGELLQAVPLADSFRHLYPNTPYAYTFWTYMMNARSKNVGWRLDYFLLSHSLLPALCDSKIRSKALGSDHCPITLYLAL

These compounds were tested against DNA repair nuclease/redox regulator APEX1 (Homo sapiens) (UniProt P27695) (assay: qHTS Assay for Inhibitors of the Human Apurinic/apyrimidinic Endonuclease 1 (APE1)). Conditions: recombinant APE1, TAMRA/BHQ-2 abasic DNA cleavage fluorescence; activity change, negative = inhibition: at 65.8 µM (top of the series).
In short: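 APE1 at 0.75 nM preincubated 15 min at room temperature with compound. Reaction then started with 50 nM double-stranded THF-abasic substrate labelled with TAMRA/BHQ-2, and 525/598 nm fluorescence read kinetically. Activity taken as third-minus-first read difference, normalized to DMSO and NSC13755 controls.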
With `CC(C)N(Cc1nc(-c2ccccc2)no1)S(=O)(=O)c1ccccc1` the Potency was inconclusive: 1 µM [inhibitor, full curve, poor fit]. With `CC(=O)OCCNc1cc(SCc2ccco2)c2nonc2c1[N+](=O)[O-]` the Potency was active: 12.6 µM. For `NC(=O)C(CC(=O)O)NC(=O)[C@@H]1CCCCNc2c(I)cc([N+](=O)[O-])cc2C(=O)N[C@@H](CO)C(=O)NCC(=O)N1` (stereo partly drawn), the Potency was inconclusive: 8.91 µM [inhibitor, partial curve]. In the case of `Cc1nc2c(Br)c(C)nn2c2c1CCC2`, the Potency is reported as inconclusive: 39.8 µM [inhibitor, single point]. For `O=C(Cc1n[nH]c(=O)[nH]c1=O)N/N=C/c1ccccc1O`, the “activity change, negative = inhibition” value was inactive: -3.84%. In the case of `CCCCNC1CCS(=O)(=O)C1` (stereo not drawn), the Potency is reported as inconclusive: 3.16 µM [inhibitor, partial curve, poor fit]. `Cc1ccc(-c2nnn(CC(=O)N(Cc3cccs3)C(C(=O)NCC3CCCO3)c3ccco3)n2)o1` (stereo not drawn) was tested, and the Potency was inconclusive: 39.8 µM [inhibitor, single point]. `CC(=O)[C@]1(O)Cc2c(O)c3c(c(O)c2[C@@H](O[C@H]2C[C@H](N)[C@H](O)[C@H](C)O2)C1)C(=O)c1c(O)cccc1C3=O` was tested, and the Potency was active: 25.1 µM. `COc1ccc(/C=N/Nc2snc(SC)c2C#N)cc1OC` was tested, and the “activity change, negative = inhibition” value was inactive: 6.88%. For `O=C(/C=N/O)NCCCCNC(=O)/C=N/O`, the Potency was inconclusive: 7.94 µM [inhibitor, single point]. In the case of `CCOC(=O)c1nnn(CC(=O)N2N=C(c3ccc(Cl)cc3)CC2c2ccc(OC)cc2)c1C(=O)OCC` (stereo not drawn), the “activity change, negative = inhibition” value is reported as inactive: -1.94%. `Cc1ccc(-c2c[n+](CC(=O)Nc3nc(-c4ccc(F)cc4)cs3)c3n2CCC3)cc1` was tested, and the Potency was inconclusive: 39.8 µM [inhibitor, partial curve, poor fit]. In the case of `CC1(OC(=O)CCc2ccccc2)C(=O)C=C2C=C(c3ccc(C#N)cc3)N(CC3CC3)C=C2C1=O` (stereo not drawn), the Potency is reported as “inactive”. `Cc1cc2c(NC(=O)Nc3ccc(F)cc3)cccc2nn1` was tested, and the Potency was inconclusive: 39.8 µM [inhibitor, single point]. For `CC(=O)OC(C(=O)c1ccccc1)c1ccccc1` (stereo not drawn), the “activity change, negative = inhibition” value was inactive: -4.01%. `Cc1cc(C=NCCCO)c(C)n1-c1cc(Cl)ccc1Cl` was tested, and the Potency was inconclusive: 6.31 µM [inhibitor, full curve, poor fit]. In the case of `CCCc1nc(C(C)(C)O)c(C(=O)OCc2oc(=O)oc2C)n1Cc1ccc(-c2ccccc2-c2nn[nH]n2)cc1`, the “activity change, negative = inhibition” value is reported as inactive: -7.53%. With `Cc1ccc(-c2nnn(CC(=O)N(CC3CCCO3)C(C(=O)NC3CCCCC3)c3ccc(F)cc3)n2)o1` (stereo not drawn) the Potency was inconclusive: 1.12 µM [inhibitor, full curve]. With `O=C1c2ccccc2C(=O)c2c1ccc(C(=O)N1CCCCC1)c2NCCO` the “activity change, negative = inhibition” value was inactive: -4.57%. With `O=C(COC(=O)CC1CCCC1)Nc1cc2c(cc1Cl)C(=O)c1ccccc1C2=O` the Potency was inconclusive: 15.8 µM [inhibitor, partial curve]. `Cc1nnc(SC(C(=O)Nc2cc(Cl)cc(Cl)c2)c2ccccc2)[nH]c1=O` (stereo not drawn) was tested, and the Potency was inconclusive: 39.8 µM [inhibitor, single point]. For `Cc1ccc[n+](-c2[nH]c(=O)sc2/C=N/N=C(\[O-])c2cccnc2)c1`, the “activity change, negative = inhibition” value was inactive: -3.12%. `COc1cc(-c2csc(N3CCOCC3)n2)cc(OC)c1OC` was tested, and the “activity change, negative = inhibition” value was inactive: -6.43%. With `CCSc1nnc(NC(=O)C2C3C=CC(C3)C2C(=O)O)s1` (stereo not drawn) the Potency was inconclusive: 39.8 µM [inhibitor, single point]. For `OC(COC1CCCCC1)CN1CCN(c2ccccc2)CC1` (stereo not drawn), the “activity change, negative = inhibition” value was inactive: -3.86%. In the case of `Cc1ccc(CSCC(=O)Nc2ccc3c(c2)OCO3)cc1`, the Potency is reported as inconclusive: 1 µM [inhibitor, full curve, poor fit]. For `NC(=S)Nc1cccc2[nH]ncc12`, the Potency was inconclusive: 5.01 µM [inhibitor, single point]. For `O=C(N/N=C/C=C\c1ccco1)c1ccccn1`, the Potency was inconclusive: 31.6 µM [inhibitor, single point]. In the case of `O=C(CSc1n[nH]c(-c2ccc(S(=O)(=O)N3CCCCC3)cc2)n1)Nc1nccs1`, the Potency is reported as inconclusive: 39.8 µM [inhibitor, single point]. For `C=CC[C@H]1CC(C)=C[C@H](CC=C)N1`, the “activity change, negative = inhibition” value was inactive: 3.79%. In the case of `Cc1nc2ccccc2n1CC(O)COc1ccccc1Cl` (stereo not drawn), the Potency is reported as inconclusive: 1.12 µM [inhibitor, full curve]. `N#CC1=C(N)N2C(=C(C#N)C1c1ccc(Br)cc1)Nc1ccccc12` (stereo not drawn) was tested, and the “activity change, negative = inhibition” value was inactive: -4.14%. For `CCCOc1ccc(C(=O)C(CCC(CNCC)C(=O)c2ccc(OCCC)cc2)CNCC)cc1` (stereo not drawn), the Potency was inconclusive: 0.0447 µM [inhibitor, full curve]. For `O=c1nc(Nc2ccccc2)sc2ccc([N+](=O)[O-])cc12`, the “activity change, negative = inhibition” value was inactive: 4.46%. With `Cc1ccc(-c2cc(C(=O)NCCN3CCOCC3)no2)cc1` the Potency was inconclusive: 12.6 µM [inhibitor, partial curve]. With `O=c1cc([O-])[n+]2c3n1CCCN3CCC2` the Potency was inconclusive: 39.8 µM [inhibitor, partial curve, poor fit]. In the case of `CC(=O)c1ccc2cccc3c2c1N=CN3C`, the Potency is reported as inconclusive: 35.5 µM [inhibitor, single point]. With `Cc1ccc2c(CN3CCN(C(=O)c4ccco4)CC3)cc(=O)oc2c1C` the Potency was inconclusive: 0.794 µM [inhibitor, full curve, poor fit]. In the case of `O=C1Nc2ccccc2/C1=N\N=C\c1ccc(O)c(O)c1`, the Potency is reported as inconclusive: 25.1 µM [inhibitor, single point]. For `CCOC(=O)c1cc2c(=O)n3ccccc3nc2n(C(C)C)c1=NC(=O)c1c(-c2c(F)cccc2Cl)noc1C`, the Potency was inconclusive: 28.2 µM [inhibitor, single point]. For `C=CCC1(c2ccccc2)Oc2ccc(C)cc2-c2nc3cc(Cl)c(Cl)cc3nc21` (stereo not drawn), the Potency was inconclusive: 3.16 µM [inhibitor, single point]. In the case of `COC(=O)C1=C[C@@H](C(=O)OC)C2C3=C(C(=O)[C@@]2(C)NC(=O)c2ccccc2)[C@H](C)n2c(=O)n(-c4ccccc4)c(=O)n2[C@@H]3C1` (stereo partly drawn), the “activity change, negative = inhibition” value is reported as inactive: -1.27%. In the case of `CC(=O)Nc1ccc(S(=O)(=O)Nc2nc3ccccc3nc2Sc2nncn2C)cc1`, the Potency is reported as inconclusive: 22.4 µM [inhibitor, partial curve].
